Measurements reported in PubChem BioAssay AID1259308 (NCATS, 2017).

Purpose: 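Knock-downs that increase output of a recombinant reporter protein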 (primary screen)
Cells: human HEK293 embryonic kidney cells stably expressing firefly luciferase (HEK-CMV-Luc2-Hygro)
Reagent: single siRNA against human genes, 0.8 pmol siRNA per well
Timing: 72 h
Read-out: 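Reporter luminescence and viable-cell signal on separate replicate plates, given as percent of non-targeting control and median/MAD z-scores, plus per-cell luciferase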
Scale: total luciferase, z-score and total luciferase, % of control: higher = more reporter protein produced; luciferase per cell, z-score: higher = more reporter output per viable cell; viable cells, % of control: higher = more viable cells
Active means: 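Active when the median/MAD z-score for overall luciferase is greater than 3; a gene was taken forward for validation with new siRNAs if at least two of its three siRNAs passed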
Meaning of the calls: active = raised luciferase; inactive = no rise
In all, the deposit lists about 59,000 reagents; shown is a part drawn at random. In the full data, about 1,510 (2.6%) were called active. 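Calls use total luciferase alone and ignore viability, so some active siRNAs may act by altering cell number.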 Reagent sequences are not shown.

target	PubChem SID	total luciferase, z-score	total luciferase, % of control	luciferase per cell, z-score	viable cells, % of control	outcome
STAR	SID160717430	2.26	127	2.08	81.8	inactive
STAR	SID160717431	-1.68	48.4	-1.63	83.1	inactive
STAR	SID160717432	-0.459	72.8	-0.733	98.6	inactive
C14orf180	SID160766950	-0.0396	81.1	0.0414	89.6	inactive
C14orf180	SID160766951	0.0256	82.4	0.225	86.8	inactive
C14orf180	SID160766952	0.868	99.1	1.38	77	inactive
MCMBP	SID160749712	1.17	105	1.03	89.7	inactive
MCMBP	SID160749713	1.06	103	0.427	103	inactive
MCMBP	SID160749714	1.89	120	1.23	96.7	inactive
RPF2	SID160732014	0.223	86.3	1.32	68.2	inactive
RPF2	SID160751802	-0.602	69.9	-1.09	104	inactive
RPF2	SID160751803	-0.0328	81.2	0.385	82	inactive
FAM117A	SID160750809	-2.31	35.9	-1.69	62.6	inactive
FAM117A	SID160750811	-1.44	53.3	-1.7	93	inactive
FAM117A	SID160750812	0.208	86	-0.171	101	inactive

A few values from above.
Result for MCMBP [SID160749714] in “viable cells, % of control”: 96.7
MCMBP [SID160749713], total luciferase, z-score: 1.06
STAR [SID160717431], luciferase per cell, z-score: -1.63
Under “total luciferase, z-score”, RPF2 [SID160751803] is entered as -0.0328

Additional reagents:
target	PubChem SID	total luciferase, z-score	total luciferase, % of control	luciferase per cell, z-score	viable cells, % of control	outcome
DMAC2L	SID160738385	-1.52	51.6	-0.84	72	inactive
DMAC2L	SID160738386	-0.71	67.8	0.052	74.7	inactive
DMAC2L	SID160738387	-0.372	74.5	-0.715	100	inactive
VPS8	SID160736090	-0.864	64.7	-0.678	86.4	inactive
VPS8	SID160736091	-0.582	70.3	-0.694	94.3	inactive
VPS8	SID160736092	0.0403	82.7	-0.16	96.4	inactive
F7	SID160763042	-0.76	66.8	-0.443	83.9	inactive
F7	SID160763053	-0.547	71	-1.61	121	inactive
F7	SID160763064	0.69	95.6	2.26	58.9	inactive
